The list shows a part of the results. These are further read-outs of the screen, such as a control signal, another cell line or another target. No call is given for them. Most of these compounds were active or inconclusive in the main read-out, so they are no random draw. Words in brackets tell the shape of the fitted curve; partial curves, single points and poor fits give uncertain potencies.
Test: qHTS Assay to Find Inhibitors of Chronic Active B-Cell Receptor Signaling
Settings: ABC-DLBCL IkBa-CBG/CBR reporter, luminescence ratio (green luciferase fused to IkBa over red control in TMD8 lymphoma cells), 4 h
How it was run: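 TMD8 human ABC-DLBCL cells with doxycycline-inducible IκBα–green luciferase fusion and unfused red luciferase, in 0.5% FBS medium; compounds up to 46 uM, 4 h at 37C. Green/red luminescence ratio, filter-overlap corrected, fitted to concentration-response curves.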

[1] = measured here: CBR red luminescence, cell number
[2] = measured here: IkBa-CBG green luminescence

Structure (SMILES)	AC50 [1]	AC50 [2]
Cn1c(CCN2CCCC2)nc2cc(NS(=O)(=O)c3ccccc3)ccc21	15.8 µM [falling, single point]	
CCCCN(C(=O)c1ccc2c(c1)NC(=O)CS2)c1ccccc1	11.6 µM [falling, partial curve]	
CCc1ccc(C(=O)c2oc3nc(C)cc(C)c3c2N)cc1	0.562 µM [rising, partial curve, poor fit]	
Cc1cccc(Nc2c(-c3ccc(N4CCOCC4)cc3)nc3ncccn23)c1	29.1 µM [rising, single point]	
O=C(CSc1nc(=O)n(Cc2ccccn2)c2c1CCC2)Nc1ccc(F)cc1F	18.4 µM [falling, single point]	
COc1cc(C)ccc1OCC(=O)Nc1ccccc1N1CCOCC1	4.11 µM [rising, partial curve]	
Cc1cc(-c2cccs2)n[nH]1	25.9 µM [rising, single point]	
CCN(CC)S(=O)(=O)c1cccc(-n2c(O)c(C=Nc3ccccc3C(=O)O)c3ccccc3c2=O)c1	0.316 µM [falling, full curve, poor fit]	
O=C(O)c1cccc(N/N=C/c2ccc(-c3ccccc3)cc2)c1	8.91 µM [falling, partial curve, poor fit]	
CC(C)CCNC(=O)COc1cccc2c1OC(C)(C)C2	35.5 µM [rising, single point]	
O=C(NNc1nc2c(F)cccc2s1)c1cc(=O)c2ccccc2o1	4.47 µM [falling, partial curve]	
Cc1ccc(NC(=O)N2CCc3ccccc32)cc1	9.2 µM [falling, partial curve]	
CCOC(=O)c1cc2sc(C)cc2n1CC(=O)NCCc1ccccc1	0.164 µM [rising, full curve, poor fit]	
COCCNC(=S)N/N=C(\C)c1cccc(OC)c1	35.5 µM [falling, single point]	35.5 µM [falling, single point]
CCC1(C)Cc2c(sc3nnn(CC(=O)Nc4cccc5ccccc45)c(=O)c23)CO1 (stereo not drawn)	28.2 µM [falling, single point]	
CC(=O)NS(=O)(=O)c1cccnc1Nc1cccc(Cl)c1	29.1 µM [rising, single point]	
COC(=O)c1ccc(N/N=C/c2cc([N+](=O)[O-])cc(OC)c2O)cc1	11.2 µM [falling, partial curve]	
CCOC(=O)C1CCN(C(=O)C(CCSC)NC(=O)c2ccccc2OC)CC1 (stereo not drawn)	3.26 µM [rising, full curve, poor fit]	
Oc1ccc(Br)cc1C1Nc2ccccc2S1 (stereo not drawn)	2.24 µM [rising, full curve, poor fit]	
CCN1CCN(CC(=O)Nc2ccc(OC(F)(F)F)cc2)CC1	0.891 µM [rising, full curve, poor fit]	
c1ccc(CSc2snnc2-c2ccccc2)cc1	1.16 µM [rising, full curve, poor fit]	
COc1cccc2cc3c(=O)n(-c4ccccc4)nc-3oc12	0.291 µM [falling, full curve]	

Structure (SMILES)	AC50 [1]	AC50 [2]
COC(=O)c1sccc1NC(=O)Cc1ccc(OC)c(OC)c1	7.31 µM [falling, partial curve]	
CCOC(=O)c1c(NCc2ccc3c(c2)OCO3)c2ccccc2[nH]c1=O	11.6 µM [falling, single point]	
Cc1nc(C)c(C(=O)Nc2nc3c(C)cccc3s2)o1	12.6 µM [falling, partial curve, poor fit]	
CCC(/C=N/NC(=O)c1ccccc1F)CC	15.8 µM [falling, partial curve, poor fit]	
COc1ccccc1C(=O)NCCC(=O)NCC(c1ccc(F)cc1)N1CCOCC1 (stereo not drawn)	25.9 µM [falling, single point]	
Cc1ccc(C2(C)NC(=O)N(CC(=O)Nc3ccc(-c4nc5ccc(C)cc5s4)cc3)C2=O)cc1 (stereo not drawn)	3.98 µM [rising, partial curve, poor fit]	
CCOc1ccc(N(CC(=O)Nc2ccccc2OCC)S(=O)(=O)c2c(C)noc2C)cc1	4.47 µM [rising, full curve]	6.31 µM [falling, full curve]
COc1cccc2c1OC1(C)CC2NC(=O)N1c1cccc(C(=O)Nc2ccc3c(c2)OCCO3)c1 (stereo not drawn)	5.8 µM [falling, partial curve, poor fit]	
Cc1ccc(Cl)cc1NC(=O)c1cnn2c1NC(c1ccco1)CC2C(F)(F)F (stereo not drawn)	1.3 µM [falling, full curve, poor fit]	
CCNc1nc(SC(C)C(=O)OC)nc(N2CCOCC2)n1 (stereo not drawn)	35.5 µM [rising, single point]	
O=C(CN(Cc1ccc(Br)cc1)S(=O)(=O)c1ccccc1)NCc1cccnc1	20 µM [falling, partial curve, poor fit]	
CCc1nc(SCC(=O)N2CC(=O)Nc3ccccc32)c2c(C)c(C)sc2n1	14.1 µM [rising, single point]	
O=C(O)c1ccc(/C=C2\SC(=S)N(Nc3ccccc3)C2=O)cc1	11.2 µM [falling, partial curve, poor fit]	
COc1cc(/C=C(\CC(=O)O)c2nc3ccccc3s2)cc(OC)c1O	35.5 µM [rising, single point]	
O=C(Nc1nccs1)c1ccc(Br)c(S(=O)(=O)N2CCCC2)c1	7.94 µM [falling, partial curve, poor fit]	
COC(=O)CSc1nc(N)nc(C)c1Cl	15.8 µM [rising, partial curve, poor fit]	
O=C(Cc1cccs1)Nc1nnc(Cc2ccccc2)s1	18.4 µM [rising, partial curve]	
O=[N+]([O-])c1cnccc1NC1CCCCC1	12.6 µM [rising, partial curve, poor fit]	
N#C/C(=C/c1ccc(Sc2nc3ccccc3[nH]2)o1)c1ccccc1F	32.6 µM [falling, single point]	
COc1ccc(C2Nc3ccccc3-c3cc(C)nn32)c(OC)c1 (stereo not drawn)	35.5 µM [falling, single point]	
COc1ccc2oc(=Nc3ccccc3)c(-c3nc4ccccc4[nH]3)cc2c1	32.6 µM [falling, single point]	
O=C(N/N=C/c1ccccn1)c1cc(-c2ccc(Cl)cc2)nc2ccccc12	16.4 µM [rising, single point]	25.9 µM [falling, single point]

Individual results from the entries so far:
AC50 [1] with N#C/C(=C/c1ccc(Sc2nc3ccccc3[nH]2)o1)c1ccccc1F is entered as 32.6 µM [falling, single point]
AC50 [1] with COc1ccc(C2Nc3ccccc3-c3cc(C)nn32)c(OC)c1 (stereo not drawn) is entered as 35.5 µM [falling, single point]
AC50 [1] with Cn1c(CCN2CCCC2)nc2cc(NS(=O)(=O)c3ccccc3)ccc21 is entered as 15.8 µM [falling, single point]
AC50 [1] with CCOC(=O)C1CCN(C(=O)C(CCSC)NC(=O)c2ccccc2OC)CC1 (stereo not drawn) is entered as 3.26 µM [rising, full curve, poor fit]

(continued)

Structure (SMILES)	AC50 [1]	AC50 [2]
COc1cccc(NC(=O)c2cnc(SC)nc2C)c1	10 µM [falling, partial curve, poor fit]	
Cc1ccc(NC(=O)c2ccc(Cn3cc(Br)cn3)o2)cc1	1.84 µM [rising, partial curve, poor fit]	
COc1ccc(-c2csc(NC(=S)NC(=O)c3ccc(S(=O)(=O)N(C)C)cc3)n2)cc1OC	3.98 µM [rising, partial curve, poor fit]	
COc1ccc(C)cc1NC(=O)c1cc2cc3ccc(C)cc3nc2o1	1 µM [falling, partial curve, poor fit]	
O=C(Nc1nnc(C2=COCCO2)o1)c1ccc(Cl)cc1	20.6 µM [falling, partial curve, poor fit]	
COc1ccc(-c2sc3ccc(OC)cc3c2C#CCCO)cc1	31.6 µM [rising, single point]	
O=C(Nc1cccc(O)c1)c1c(O)c2ccccc2[nH]c1=O	35.5 µM [falling, single point]	
COc1ccccc1NC(=O)C(=O)NNS(=O)(=O)c1ccc2ccccc2c1	7.94 µM [falling, partial curve]	
CCOC(=O)C(C)N1C(=O)S/C(=C/c2ccc3c(c2)n(C)c(=O)n3C)C1=O (stereo not drawn)	11.2 µM [rising, partial curve]	12.6 µM [falling, partial curve]
CCOC(=O)CN(C(=O)CSc1nnc(-c2cccc(OC)c2)o1)c1ccc(F)cc1	15.8 µM [falling, partial curve]	
Cc1nn(-c2ccccn2)c2c1C(c1c(F)cccc1Cl)C1=C(N2)c2ccccc2C1=O (stereo not drawn)	1.84 µM [rising, partial curve]	
COc1ccc(NC(=O)c2cc([N+](=O)[O-])ccc2NC(=O)CNCc2ccccn2)c(OC)c1	11.2 µM [falling, single point]	
COc1ccc(NC(=O)/C(C#N)=C/c2ccc3c(c2)n(C)c(=O)n3C)cc1	10.3 µM [rising, partial curve]	
O=C(Nc1nc(-c2ccc(Oc3ccccc3)cc2)cs1)C1=COCCO1	10.3 µM [rising, partial curve, poor fit]	
COc1ccc(C2=CCN3CCCCC3C2)c(-c2ccc(OC)c(OC)c2)c1 (stereo not drawn)	29.1 µM [rising, single point]	
Cc1ccc(S(=O)(=O)N2CCCN(S(=O)(=O)C3CCS(=O)(=O)C3)CC2)cc1 (stereo not drawn)	29.1 µM [rising, single point]	
CCOC(=O)Cn1c(C)c(Br)c(=O)c2cccc(C)c21	35.5 µM [rising, single point]	
Cc1ccccc1NC(=O)/C(C#N)=C/c1ccc[nH]1	11.2 µM [falling, partial curve]	
COc1ccc2cc(-c3cccnc3)ncc2c1	16.4 µM [falling, single point]	
CCOc1ccc2nc(N(Cc3cccnc3)C(=O)c3cccs3)sc2c1	1.12 µM [rising, full curve, poor fit]	
